These are yes or no findings as the source states them, for the method shown. In cells and extracts the contact can be indirect. Some binding calls cover weakened binding; strength is not graded here.
How the values were obtained:
[1] = molecular target: specific protein 1 transcription factor (Sp1) (human (endogenous in HCC1806 and HCC1937)) (UniProt P08047); test: co-IP; nuclear cell lysates of HCC1806 and HCC1937 cells, Western blot
[2] = molecular target: specific protein 1 transcription factor (Sp1) (human (endogenous in HCC1806 and HCC1937)) (UniProt P08047); test: co-IP; cytoplasmic cell lysates of HCC1806 and HCC1937 cells, Western blot
[3] = molecular target: specific protein 1 transcription factor (Sp1) (human (endogenous in HCC1806 and HCC1937)) (UniProt P08047); test: co-IP; lysates of HCC1806 and HCC1937 cells (150 mM NaCl, 1 mM EDTA pH 8.0, 50 mM Tris-HCl pH 7.4, 1% Triton X-100), indicated antibodies 36 h at 4 °C, protein A/G magnetic beads, Western blot; IgG as negative control

By UniProt entry, the sequences of proteins in these tests, tags left out.
UniProt P08047: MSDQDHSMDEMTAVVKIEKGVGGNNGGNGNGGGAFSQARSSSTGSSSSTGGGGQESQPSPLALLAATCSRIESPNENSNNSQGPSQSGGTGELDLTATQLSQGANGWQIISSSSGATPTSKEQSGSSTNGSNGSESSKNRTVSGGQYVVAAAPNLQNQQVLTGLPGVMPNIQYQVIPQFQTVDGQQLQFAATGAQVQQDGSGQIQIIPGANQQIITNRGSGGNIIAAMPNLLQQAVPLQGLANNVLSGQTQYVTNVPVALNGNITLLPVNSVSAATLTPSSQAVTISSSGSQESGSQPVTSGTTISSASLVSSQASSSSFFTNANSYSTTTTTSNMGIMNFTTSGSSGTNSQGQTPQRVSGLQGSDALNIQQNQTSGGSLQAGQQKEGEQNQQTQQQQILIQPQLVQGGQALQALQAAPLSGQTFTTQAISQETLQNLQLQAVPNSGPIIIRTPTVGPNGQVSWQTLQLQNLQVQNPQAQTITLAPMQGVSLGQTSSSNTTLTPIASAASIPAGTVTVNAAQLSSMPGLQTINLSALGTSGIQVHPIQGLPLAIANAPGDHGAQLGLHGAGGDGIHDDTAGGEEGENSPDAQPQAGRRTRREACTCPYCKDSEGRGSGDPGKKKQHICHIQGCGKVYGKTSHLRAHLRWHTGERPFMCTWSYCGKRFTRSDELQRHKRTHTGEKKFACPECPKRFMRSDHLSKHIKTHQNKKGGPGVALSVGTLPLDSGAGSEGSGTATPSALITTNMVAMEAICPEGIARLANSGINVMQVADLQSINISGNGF

B1: ε-Sarcoglycan (SGCE) (protein, UniProt O43556 1-437)
chain: MQLPRWWELGDPCAWTGQGRGTRRMSPATTGTFLLTVYSIFSKVHSDRNVYPSAGVLFVHVLEREYFKGEFPPYPKPGEISNDPITFNTNLMGYPDRPGWLRYIQRTPYSDGVLYGSPTAENVGKPTIIEITAYNRRTFETARHNLIINIMSAEDFPLPYQAEFFIKNMNVEEMLASEVLGDFLGAVKNVWQPERLNAINITSALDRGGRVPLPINDLKEGVYVMVGADVPFSSCLREVENPQNQLRCSQEMEPVITCDKKFRTQFYIDWCKISLVDKTKQVSTYQEVIRGEGILPDGGEYKPPSDSLKSRDYYTDFLITLAVPSAVALVLFLILAYIMCCRREGVEKRNMQTPDIQLVHHSAIQKSTKELRDMSKNREIAWPLSTLPVFHPVTGEIIPPLHTDNYDSTNMPLMQTQQNLPHQTQIPQQQTTGKWYP
How did the binding [1] turn out when B1 was run?
Its binding is “binds”.

And the binding [2]?
The binding was “no binding (condition: in the cytoplasmic cell lysate)”.

What about the binding [3] of the same binder?
Its binding is “binds”.

Reference: publication PMC10641673
